This is one part of the list.
Columns and labels:
Assay in all cases: glycan array binding signal (z-score within array); higher = stronger binding
Conditions in all cases: glycan notation: IUPAC condensed, linker removed
[1] = target: Neu5Ac(a2-3)Gal(b1-3)GalNAc
Method in brief: (§1)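 The binding signal is a Z-score computed within each array and averaged over linkers. Arrays of the same protein sequence at different concentrations or buffers were also averaged together. Data originate from 3228 arrays in the Consortium for Functional Glycomics database, kept only where the protein sequence was available.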

[2] = target: Neu5Ac(a2-3)Gal(b1-3)GalNAc(b1-3)Gal(a1-4)Gal(b1-4)Glc
Method in brief: as §1

[3] = target: Neu5Ac(a2-3)Gal(b1-3)GalNAc(b1-4)Gal(b1-4)Glc
Method in brief: as §1

[4] = target: Neu5Ac(a2-3)Gal(b1-3)GalNAc(b1-4)[Neu5Ac(a2-3)]Gal(b1-4)Glc
Method in brief: as §1

[5] = target: Neu5Ac(a2-3)Gal(b1-3)GalNAc(b1-4)[Neu5Ac(a2-8)Neu5Ac(a2-3)]Gal(b1-4)Glc
Method in brief: as §1

[6] = target: Neu5Ac(a2-3)Gal(b1-3)GalNAc6S
Method in brief: as §1

[7] = target: Neu5Ac(a2-3)Gal(b1-3)GlcNAc
Method in brief: as §1

[8] = target: Neu5Ac(a2-3)Gal(b1-3)GlcNAc(b1-2)Man
Method in brief: as §1

[9] = target: Neu5Ac(a2-3)Gal(b1-3)GlcNAc(b1-2)Man(a1-3)[GlcNAc(b1-4)][Neu5Ac(a2-3)Gal(b1-3)GlcNAc(b1-2)Man(a1-6)]Man(b1-4)GlcNAc(b1-4)GlcNAc
Method in brief: as §1

[10] = target: Neu5Ac(a2-3)Gal(b1-3)GlcNAc(b1-2)Man(a1-3)[Neu5Ac(a2-3)Gal(b1-3)GlcNAc(b1-2)Man(a1-6)]Man(b1-4)GlcNAc(b1-4)GlcNAc
Method in brief: as §1

[11] = target: Neu5Ac(a2-3)Gal(b1-3)GlcNAc(b1-2)[Neu5Ac(a2-3)Gal(b1-3)GlcNAc(b1-4)]Man(a1-6)[Neu5Ac(a2-3)Gal(b1-3)GlcNAc(b1-2)Man(a1-3)]Man(b1-4)GlcNAc(b1-4)GlcNAc
Method in brief: as §1

[12] = target: Neu5Ac(a2-3)Gal(b1-3)GlcNAc(b1-3)Gal(b1-3)GlcNAc
Method in brief: as §1

[13] = target: Neu5Ac(a2-3)Gal(b1-3)GlcNAc(b1-3)Gal(b1-4)GlcNAc
Method in brief: as §1

[14] = target: Neu5Ac(a2-3)Gal(b1-3)GlcNAc(b1-3)GalNAc
Method in brief: as §1

[15] = target: Neu5Ac(a2-3)Gal(b1-3)GlcNAc(b1-6)GalNAc
Method in brief: as §1

[16] = target: Neu5Ac(a2-3)Gal(b1-3)GlcNAc6S
Method in brief: as §1

[17] = target: Neu5Ac(a2-3)Gal(b1-3)[Fuc(a1-4)]GlcNAc
Method in brief: as §1

[18] = target: Neu5Ac(a2-3)Gal(b1-3)[Fuc(a1-4)]GlcNAc(b1-3)Gal(b1-3)[Fuc(a1-4)]GlcNAc
Method in brief: as §1

[19] = target: Neu5Ac(a2-3)Gal(b1-3)[Fuc(a1-4)]GlcNAc(b1-3)Gal(b1-4)[Fuc(a1-3)]GlcNAc
Method in brief: as §1

[20] = target: Neu5Ac(a2-3)Gal(b1-3)[GlcNAc(b1-6)]GalNAc
Method in brief: as §1

[21] = target: Neu5Ac(a2-3)Gal(b1-3)[Neu5Ac(a2-6)]GalNAc
Method in brief: as §1

[22] = target: Neu5Ac(a2-3)Gal(b1-3)[Neu5Ac(a2-6)]GlcNAc(b1-3)[Fuc(a1-3)[Gal(b1-4)]GlcNAc(b1-6)]Gal(b1-4)Glc
Method in brief: as §1

[23] = target: Neu5Ac(a2-3)Gal(b1-3)]Neu5Ac(a2-3)Gal(b1-4)]GlcNAc
Method in brief: as §1

Neu5Ac(a2-3)Gal(b1-4)Glc = target: Neu5Ac(a2-3)Gal(b1-4)Glc
Method in brief: as §1

[24] = target: Neu5Ac(a2-3)Gal(b1-4)GlcNAc
Method in brief: as §1

[25] = target: Neu5Ac(a2-3)Gal(b1-4)GlcNAc(b1-2)Man
Method in brief: as §1

[26] = target: Neu5Ac(a2-3)Gal(b1-4)GlcNAc(b1-2)Man(a1-3)[GlcNAc(b1-4)][Neu5Ac(a2-3)Gal(b1-4)GlcNAc(b1-2)Man(a1-6)]Man(b1-4)GlcNAc(b1-4)GlcNAc
Method in brief: as §1

[27] = target: Neu5Ac(a2-3)Gal(b1-4)GlcNAc(b1-2)Man(a1-3)[Neu5Ac(a2-3)Gal(b1-4)GlcNAc(b1-2)Man(a1-6)]Man(b1-4)GlcNAc(b1-4)GlcNAc
Method in brief: as §1

[28] = target: Neu5Ac(a2-3)Gal(b1-4)GlcNAc(b1-2)Man(a1-3)[Neu5Ac(a2-3)Gal(b1-4)GlcNAc(b1-2)Man(a1-6)]Man(b1-4)GlcNAc(b1-4)[Fuc(a1-6)]GlcNAc
Method in brief: as §1

[29] = target: Neu5Ac(a2-3)Gal(b1-4)GlcNAc(b1-2)Man(a1-3)[Neu5Ac(a2-6)Gal(b1-4)GlcNAc(b1-2)Man(a1-6)]Man(b1-4)GlcNAc(b1-4)GlcNAc
Method in brief: as §1

[30] = target: Neu5Ac(a2-3)Gal(b1-4)GlcNAc(b1-2)[Neu5Ac(a2-3)Gal(b1-4)GlcNAc(b1-4)]Man(a1-3)[GlcNAc(b1-4)][Neu5Ac(a2-3)Gal(b1-4)GlcNAc(b1-2)[Neu5Ac(a2-3)Gal(b1-4)GlcNAc(b1-6)]Man(a1-6)]Man(b1-4)GlcNAc(b1-4)GlcNAc
Method in brief: as §1

[31] = target: Neu5Ac(a2-3)Gal(b1-4)GlcNAc(b1-2)[Neu5Ac(a2-3)Gal(b1-4)GlcNAc(b1-4)]Man(a1-3)[GlcNAc(b1-4)][Neu5Ac(a2-3)Gal(b1-4)GlcNAc(b1-4)Man(a1-6)]Man(b1-4)GlcNAc(b1-4)GlcNAc
Method in brief: as §1

[32] = target: Neu5Ac(a2-3)Gal(b1-4)GlcNAc(b1-2)[Neu5Ac(a2-3)Gal(b1-4)GlcNAc(b1-6)]Man(a1-6)[Neu5Ac(a2-3)Gal(b1-4)GlcNAc(b1-2)Man(a1-3)][GlcNAc(b1-4)]Man(b1-4)GlcNAc(b1-4)GlcNAc
Method in brief: as §1

[33] = target: Neu5Ac(a2-3)Gal(b1-4)GlcNAc(b1-3)Gal
Method in brief: as §1

[34] = target: Neu5Ac(a2-3)Gal(b1-4)GlcNAc(b1-3)Gal(b1-3)GlcNAc
Method in brief: as §1

[35] = target: Neu5Ac(a2-3)Gal(b1-4)GlcNAc(b1-3)Gal(b1-4)GlcNAc
Method in brief: as §1

[36] = target: Neu5Ac(a2-3)Gal(b1-4)GlcNAc(b1-3)Gal(b1-4)GlcNAc(b1-2)Man(a1-3)[Neu5Ac(a2-3)Gal(b1-4)GlcNAc(b1-3)Gal(b1-4)GlcNAc(b1-2)Man(a1-6)]Man(b1-4)GlcNAc(b1-4)GlcNAc
Method in brief: as §1

B1: SJCP1531 (Schistosoma japonicum) (protein)
chain: MFKVRIINLVNISTVLLLINLLQTKSQVNVEQLVTVLEVNIKAQLKNKTTEVLVEWNPLYQDNSMPEYRKLLDETCKLFLPFVNEKVPPSTYGGECTNANFSEAPQDGSYSRVNAELRLIYKYSDNPQIQTDRLQDDLNDREEFITSESSFVAYNPKFTVKIEKLFIPISESQTTPPPTTAKNDASKKDDDDNGGEDSKAPIDTFAMTASGNKGKKDDDDNGGEDSKAPIDTFAMTASGSKDERSTWTIIGIITLVVLIFVVIGGGITVFVKRC
For B1, the “glycan array binding signal (z-score)” value [1] was -0.628, the “glycan array binding signal (z-score)” value [2] was -0.631 and the “glycan array binding signal (z-score)” value [3] was -0.322. The “glycan array binding signal (z-score)” value [4] was -1.32, the “glycan array binding signal (z-score)” value [5] was 0.296 and the “glycan array binding signal (z-score)” value [6] was -0.781. For the same binder, the “glycan array binding signal (z-score)” value [7] was 0.368, the “glycan array binding signal (z-score)” value [8] was -0.604 and the “glycan array binding signal (z-score)” value [9] was -1.23. The “glycan array binding signal (z-score)” value [10] was 0.089, the “glycan array binding signal (z-score)” value [11] was -0.175 and the “glycan array binding signal (z-score)” value [12] was -1.78. The “glycan array binding signal (z-score)” value [13] was -0.438, the “glycan array binding signal (z-score)” value [14] was 0.87 and the “glycan array binding signal (z-score)” value [15] was 0.742. The “glycan array binding signal (z-score)” value [16] was -0.838, the “glycan array binding signal (z-score)” value [17] was -0.374 and the “glycan array binding signal (z-score)” value [18] was 1.14. The “glycan array binding signal (z-score)” value [19] was -0.267, the “glycan array binding signal (z-score)” value [20] was 0.205 and the “glycan array binding signal (z-score)” value [21] was -0.266. The “glycan array binding signal (z-score)” value [22] was 0.054, the “glycan array binding signal (z-score)” value [23] was -0.188 and the “glycan array binding signal (z-score)” value (Neu5Ac(a2-3)Gal(b1-4)Glc) was 1.17. The “glycan array binding signal (z-score)” value [24] was 0.335, the “glycan array binding signal (z-score)” value [25] was 1.47 and the “glycan array binding signal (z-score)” value [26] was 0.19. For the same binder, the “glycan array binding signal (z-score)” value [27] was 0.938, the “glycan array binding signal (z-score)” value [28] was -1.15 and the “glycan array binding signal (z-score)” value [29] was -0.815. For the same binder, the “glycan array binding signal (z-score)” value [30] was 0.502, the “glycan array binding signal (z-score)” value [31] was 0.584 and the “glycan array binding signal (z-score)” value [32] was -0.403. The “glycan array binding signal (z-score)” value [33] was -0.242, the “glycan array binding signal (z-score)” value [34] was 1.34 and the “glycan array binding signal (z-score)” value [35] was 2.53. For the same binder, the “glycan array binding signal (z-score)” value [36] was -1.45.

From the supplement of paper PMC8728848
